No constants are given. Whether binding was seen depends on the method and setting. Some entries that bind do so weakly or less than the wild type.
Molecular target: T1, GDF-11 (UniProt O95390)
T1 sequence (looked up): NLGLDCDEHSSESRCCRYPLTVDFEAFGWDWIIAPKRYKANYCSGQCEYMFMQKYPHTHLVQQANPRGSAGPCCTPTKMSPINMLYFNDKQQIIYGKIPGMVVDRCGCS
Assay: SPR (Biacore), ligand immobilized on CM5 chip

Chains of the proteins cited; added tags and fusions are not shown. Lines headed by an entry give the natural chain unless they say otherwise; changes in a name come on top.
UniProt P27037: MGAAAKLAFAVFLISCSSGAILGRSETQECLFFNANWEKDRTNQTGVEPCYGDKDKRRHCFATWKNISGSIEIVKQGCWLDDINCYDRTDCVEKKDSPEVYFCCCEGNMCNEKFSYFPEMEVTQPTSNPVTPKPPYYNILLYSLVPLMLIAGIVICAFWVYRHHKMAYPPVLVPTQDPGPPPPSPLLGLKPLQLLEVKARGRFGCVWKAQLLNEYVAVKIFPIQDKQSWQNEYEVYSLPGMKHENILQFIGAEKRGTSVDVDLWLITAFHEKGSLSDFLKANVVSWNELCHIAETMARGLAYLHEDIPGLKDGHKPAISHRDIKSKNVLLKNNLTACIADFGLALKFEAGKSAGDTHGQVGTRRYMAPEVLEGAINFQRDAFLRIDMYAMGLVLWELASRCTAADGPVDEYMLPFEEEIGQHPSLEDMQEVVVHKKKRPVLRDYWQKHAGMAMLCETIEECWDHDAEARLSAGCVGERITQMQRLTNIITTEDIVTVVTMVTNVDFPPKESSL

In the case of “ActRIIa-mFc (from UniProt P27037 21-135) (Fc fusion)”, the binding is reported as “binds”.

Reference: patent US20090074768A1
